Experimental data from paper PMC5595311.

Biological target: T1, TRIF (Flag- or HA-tagged) (murine) (UniProt Q80UF7)
T1 sequence: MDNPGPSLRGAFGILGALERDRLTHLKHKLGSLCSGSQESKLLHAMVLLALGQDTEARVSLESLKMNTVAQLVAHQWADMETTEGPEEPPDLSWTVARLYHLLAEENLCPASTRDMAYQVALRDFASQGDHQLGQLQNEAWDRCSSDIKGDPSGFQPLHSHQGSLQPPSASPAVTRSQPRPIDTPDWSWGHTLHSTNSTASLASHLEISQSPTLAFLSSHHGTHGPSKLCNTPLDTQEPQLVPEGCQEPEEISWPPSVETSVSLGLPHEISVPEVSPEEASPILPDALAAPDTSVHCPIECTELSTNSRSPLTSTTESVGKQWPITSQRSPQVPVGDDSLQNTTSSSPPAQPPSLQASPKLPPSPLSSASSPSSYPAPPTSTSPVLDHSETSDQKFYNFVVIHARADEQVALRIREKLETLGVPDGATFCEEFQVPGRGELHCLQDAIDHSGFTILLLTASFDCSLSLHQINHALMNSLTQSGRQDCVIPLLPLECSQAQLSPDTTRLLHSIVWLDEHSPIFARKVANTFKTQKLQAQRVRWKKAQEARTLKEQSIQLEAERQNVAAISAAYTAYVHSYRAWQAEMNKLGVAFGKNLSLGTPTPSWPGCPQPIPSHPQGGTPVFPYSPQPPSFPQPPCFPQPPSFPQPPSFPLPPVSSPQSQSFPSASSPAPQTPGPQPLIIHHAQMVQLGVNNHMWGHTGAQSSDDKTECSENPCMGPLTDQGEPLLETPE
Experiment: co-IP; HEK293 cells transfected with the indicated plasmids for 24 hours, co-immunoprecipitation and immunoblotting with the indicated antibodies

OPTN
binding: binds

These are yes or no findings as the source states them, for the method shown. Binding seen in cells or lysates may run through a third protein. Binding can be weak; no strength is given. Where a sequence is shown, tags or fusion partners need not be part of it.
